Laboratory results reported in PMC4737156, “Taking a molecular motor for a spin: helicase mechanism studied by spin labeling and PELDOR”.
These are yes or no findings as the source states them, for the method shown. Blank lines part the entries; values can stand above or below the binder they belong to.

Experiments:
Test in all cases: PELDOR (pulsed EPR); 70 μM spin-labelled PcrA in D2O buffer (10 mM TES pH 7.4, 500 mM NaCl), alone or with 150 μM hairpin DNA and/or AMP-PNP or ADP with MgCl2, 5% EG-d6; frozen solution, measured at 50 K, X-band; both purified
[1] = biological target: PcrA E74C-V344C, spin labelled with MTSSL (74R1-344R1) (Bacillus stearothermophilus) (UniProt P56255)
[2] = biological target: PcrA V344C-Q506C, spin labelled with MTSSL (344R1-506R1) (Bacillus stearothermophilus) (UniProt P56255)
[3] = biological target: PcrA E74C-Q506C, spin labelled with MTSSL (74R1-506R1) (Bacillus stearothermophilus) (UniProt P56255)

binding [1]: no binding (tested: 70 μM)
B1: PcrA E74C-V344C, spin labelled with MTSSL (74R1-344R1) (enzyme, UniProt P56255 1-724)
chain: MNFLSEQLLAHLNKEQQEAVRTTEGPLLIMAGAGSGKTRVLTHRIAYLMAEKHVAPWNILAITFTNKAAREMRCRVQSLLGGAAEDVWISTFHSMCVRILRRDIDRIGINRNFSILDPTDQLSVMKTILKEKNIDPKKFEPRTILGTISAAKNELLPPEQFAKRASTYYEKVVSDVYQEYQQRLLRNHSLDFDDLIMTTIQLFDRVPDVLHYYQYKFQYIHIDEYQDTNRAQYTLVKKLAERFQNICAVGDADQSIYRWRGADIQNILSFERDYPNAKVILLEQNYRSTKRILQAANEVIEHNVNRKPKRIWTENPEGKPILYYEAMNEADEAQFVAGRIREACERGERRYRDFAVLYRTNAQSRVMEEMLLKANIPYQIVGGLKFYDRKEIKDILAYLRVIANPDDDLSLLRIINVPKRGIGASTIDKLVRYAADHELSLFEALGELEMIGLGAKAAGALAAFRSQLEQWTQLQEYVSVTELVEEVLDKSGYREMLKAERTIEAQSRLENLDEFLSVTKHFENVSDDKSLIAFLTDLALISDLDELDGTEQAAEGDAVMLMTLHAAKGLEFPVVFLIGMEEGIFPHNRSLEDDDEMEEERRLAYVGITRAEEELVLTSAQMRTLFGNIQMDPPSRFLNEIPAHLLETASRRQAGASRPAVSRPQASGAVGSWKVGDRANHRKWGIGTVVSVRGGGDDQELDIAFPSPIGIKRLLAKFAPIEKV
modifications: MTSSL spin label (R1) on cysteines 74 and 344

binding [2]: no binding (tested: 70 μM)
B2: PcrA V344C-Q506C, spin labelled with MTSSL (344R1-506R1) (enzyme, UniProt P56255 1-724)
chain: MNFLSEQLLAHLNKEQQEAVRTTEGPLLIMAGAGSGKTRVLTHRIAYLMAEKHVAPWNILAITFTNKAAREMRERVQSLLGGAAEDVWISTFHSMCVRILRRDIDRIGINRNFSILDPTDQLSVMKTILKEKNIDPKKFEPRTILGTISAAKNELLPPEQFAKRASTYYEKVVSDVYQEYQQRLLRNHSLDFDDLIMTTIQLFDRVPDVLHYYQYKFQYIHIDEYQDTNRAQYTLVKKLAERFQNICAVGDADQSIYRWRGADIQNILSFERDYPNAKVILLEQNYRSTKRILQAANEVIEHNVNRKPKRIWTENPEGKPILYYEAMNEADEAQFVAGRIREACERGERRYRDFAVLYRTNAQSRVMEEMLLKANIPYQIVGGLKFYDRKEIKDILAYLRVIANPDDDLSLLRIINVPKRGIGASTIDKLVRYAADHELSLFEALGELEMIGLGAKAAGALAAFRSQLEQWTQLQEYVSVTELVEEVLDKSGYREMLKAERTIEACSRLENLDEFLSVTKHFENVSDDKSLIAFLTDLALISDLDELDGTEQAAEGDAVMLMTLHAAKGLEFPVVFLIGMEEGIFPHNRSLEDDDEMEEERRLAYVGITRAEEELVLTSAQMRTLFGNIQMDPPSRFLNEIPAHLLETASRRQAGASRPAVSRPQASGAVGSWKVGDRANHRKWGIGTVVSVRGGGDDQELDIAFPSPIGIKRLLAKFAPIEKV
modifications: MTSSL spin label (R1) on cysteines 344 and 506

binding [3]: no binding (tested: 70 μM)
B3: PcrA E74C-Q506C, spin labelled with MTSSL (74R1-506R1) (enzyme, UniProt P56255 1-724)
chain: MNFLSEQLLAHLNKEQQEAVRTTEGPLLIMAGAGSGKTRVLTHRIAYLMAEKHVAPWNILAITFTNKAAREMRCRVQSLLGGAAEDVWISTFHSMCVRILRRDIDRIGINRNFSILDPTDQLSVMKTILKEKNIDPKKFEPRTILGTISAAKNELLPPEQFAKRASTYYEKVVSDVYQEYQQRLLRNHSLDFDDLIMTTIQLFDRVPDVLHYYQYKFQYIHIDEYQDTNRAQYTLVKKLAERFQNICAVGDADQSIYRWRGADIQNILSFERDYPNAKVILLEQNYRSTKRILQAANEVIEHNVNRKPKRIWTENPEGKPILYYEAMNEADEAQFVAGRIREAVERGERRYRDFAVLYRTNAQSRVMEEMLLKANIPYQIVGGLKFYDRKEIKDILAYLRVIANPDDDLSLLRIINVPKRGIGASTIDKLVRYAADHELSLFEALGELEMIGLGAKAAGALAAFRSQLEQWTQLQEYVSVTELVEEVLDKSGYREMLKAERTIEACSRLENLDEFLSVTKHFENVSDDKSLIAFLTDLALISDLDELDGTEQAAEGDAVMLMTLHAAKGLEFPVVFLIGMEEGIFPHNRSLEDDDEMEEERRLAYVGITRAEEELVLTSAQMRTLFGNIQMDPPSRFLNEIPAHLLETASRRQAGASRPAVSRPQASGAVGSWKVGDRANHRKWGIGTVVSVRGGGDDQELDIAFPSPIGIKRLLAKFAPIEKV
modifications: MTSSL spin label (R1) on cysteines 74 and 506
